# Test results from PubChem BioAssay AID504444 (National Center for Advancing Translational Sciences (NCATS), 2011).
# Out of some 360,000 compounds screened, about 7,500 (2.1%) were called active. Inconclusive results, whose numbers are uncertain, are shown with a selection of clear calls. Calls follow the shape of the dose curve; as a rule, active = well fitted inhibition curve with a large enough effect; inconclusive = small, poorly fitted or top-dose-only effect, or effect the other way; inactive = flat fitted curve, though single readings scatter. Where the call is inconclusive, the potency comes from a doubtful curve fit.
# Experiment: Nrf2 qHTS screen for inhibitors; also: nearly all actives have a fitted effect of over 60% in size
# Settings: A549 ARE-Fluc reporter, luciferase luminescence, 18-24 h; series mostly up to 46 µM
# In short: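 In this cell-based qHTS, ARE-driven firefly luciferase in A549 cells reports Nrf2 activity; the luminescent signal after BugLite lysis is the measured value, with a prior CellTiter-Fluor read for cell health.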
# Potency is read from the fitted curve at half-maximal effect.
row,Structure (SMILES),Potency
1,CCN(CC)C(=O)Cn1cc(SCC(=O)Nc2cc(OC)ccc2OC)c2ccccc21,inactive
2,Cn1c(=O)c2c(nc(NCCO)n2C)n(C)c1=O,"inconclusive: 16.4 µM [activator, partial curve, poor fit]"
3,Cc1cc(NC(=O)c2ccc(NC(=O)CC(C)C)cc2)no1,"inconclusive: 20.6 µM [activator, single point]"
4,COc1ccccc1C(=O)Nc1ccc(OCC(=O)N2CC(C)CC(C)C2)cc1 (stereo unspecified),"inconclusive: 23.1 µM [falling, single point]"
5,Nc1[nH]c2cc([N+](=O)[O-])ccc2c1-c1ccccn1,inactive
6,COC(=O)c1cc(S(=O)(=O)N2CCN(Cc3ccccc3)CC2)c[nH]1,"inconclusive: 25.9 µM [falling, partial curve, poor fit]"
7,COc1ccc(N(CC(=O)Nc2ccc(C(N)=O)cc2)S(=O)(=O)c2ccc(C)c([N+](=O)[O-])c2)cc1,"inconclusive: 14.6 µM [falling, partial curve, poor fit]"
8,Cc1onc(-c2ccccc2)c1C(=O)OCC(=O)Nc1cc(S(=O)(=O)N2CCOCC2)ccc1Cl,"inconclusive: 29.1 µM [falling, single point]"
9,COC(=O)c1ccc(NC(=O)CSc2nccn2CCc2ccccc2)cc1,"inconclusive: 23.1 µM [activator, single point]"
10,O=c1c2ccccc2nc(-c2ccccc2)n1Cc1ccccc1,"inconclusive: 29.1 µM [activator, single point]"
11,CC(=O)Nc1ccc(NC(=O)c2ccc(C3SCC(=O)N3CCc3ccccc3)cc2)cc1 (stereo unspecified),"inconclusive: 20.6 µM [falling, single point]"
12,Cc1cc(Cl)ccc1OCc1nnc(-c2ccccc2C)o1,"inconclusive: 3.26 µM [activator, full curve]"
13,COc1ccc(S(=O)(=O)N2CCN(C(=O)c3ccco3)CC2)cc1C(C)(C)C,"inconclusive: 25.9 µM [falling, partial curve, poor fit]"
14,O=C(CN1CCN(Cc2ccccc2)CC1)NNC(=O)c1ccccc1,inactive
15,O=C(COc1ccccc1Br)Nc1ccc(S(=O)(=O)N2CCCC2)cc1,active: 13 µM
16,COCC1CCCCN1C(=O)c1ccc2oc(CCCc3ccccc3)nc2c1 (stereo unspecified),"inconclusive: 2.31 µM [activator, partial curve, poor fit]"
17,COc1ccc(OC)c(C2CC(=O)Nc3c2c(=O)n(C)c2ncnn32)c1 (stereo unspecified),"inconclusive: 7.31 µM [falling, partial curve, poor fit]"
18,CSc1ccc(C2C(C#N)=C(N)Oc3cc4c(cc32)OCO4)cc1 (stereo unspecified),"inconclusive: 29.1 µM [falling, single point]"
19,COc1ccccc1C(O)(C(=O)NN(C(=O)c1ccccc1)c1ccccc1C)c1cccs1 (stereo unspecified),inactive
20,COc1ccc(-c2noc(-c3nnn(-c4ccc(C)cc4C)c3C)n2)cc1,"inconclusive: 5.17 µM [falling, single point]"
21,COc1ccc(S(=O)(=O)c2cn(C)c3cc(N4CCCCCC4)c(F)cc3c2=O)cc1,"inconclusive: 16.4 µM [falling, single point]"
22,Cc1ccc(-n2nc(CO)c(C(=O)NCc3cccnc3)n2)cc1C,inactive

# In another format: entries from further up.
row	Structure (SMILES)	Potency
9	COC(=O)c1ccc(NC(=O)CSc2nccn2CCc2ccccc2)cc1	inconclusive: 23.1 µM [activator, single point]
11	CC(=O)Nc1ccc(NC(=O)c2ccc(C3SCC(=O)N3CCc3ccccc3)cc2)cc1 (stereo unspecified)	inconclusive: 20.6 µM [falling, single point]

# (cont.)

row,Structure (SMILES),Potency
1,Cc1ccc(-c2noc(C3CCCN(C(=O)c4ccc(C(C)(C)C)cc4)C3)n2)o1 (stereo unspecified),"inconclusive: 23.1 µM [falling, single point]"
2,CSc1nc(NCc2ccccc2)c2c3c(sc2n1)CN(C)CC3,inactive
3,NS(=O)(=O)c1ccc(CCNC(=O)CN2CCN(Cc3cccc(C(F)(F)F)c3)CC2)cc1,"inconclusive: 23.1 µM [falling, single point]"
4,O=C(Nc1cccc2cccnc12)OC(Cl)(Cl)Cl,"inconclusive: 7.31 µM [falling, single point]"
5,FC(F)(F)c1cccc(CN2CCC(c3cc(-c4cccs4)n[nH]3)CC2)c1,"inconclusive: 29.1 µM [falling, single point]"
6,O=C(Sc1ccc(Cl)cc1)c1cccc(Cn2cc(C(F)(F)F)ccc2=O)c1,"inconclusive: 25.9 µM [falling, single point]"
7,O=C(CSc1ncccn1)NC(=O)Cc1ccccc1,inactive
8,COc1ccc2nc(SC(C)C(=O)NC3CCCCC3)[nH]c2c1 (stereo unspecified),"inconclusive: 20.6 µM [falling, partial curve, poor fit]"
9,N/C(=N\OC(=O)c1ccc(Cl)cc1Cl)c1ccc(Cl)cc1,"inconclusive: 0.731 µM [activator, full curve]"
10,Cc1nc(NC(=O)c2ccc(Cl)cc2)nc2cc3c(cc12)OCO3,"inconclusive: 29.1 µM [falling, single point]"
11,O=C1Nc2ccccc2N=C(c2ccccc2)C1Br (stereo unspecified),"inconclusive: 18.4 µM [activator, partial curve, poor fit]"
12,COc1ccc(-c2cnc(SCC(=O)Nc3nc(C(C)(C)C)cs3)n2Cc2ccco2)cc1,active: 20.6 µM
13,COc1cc(C(c2sc3nc(C)nn3c2O)N2CC(C)OC(C)C2)cc(OC)c1OC (stereo unspecified),inactive
14,Cc1ccc(CNC(=O)c2cc3sc(Cl)cc3n2C)cc1,"inconclusive: 23.1 µM [activator, partial curve]"
15,CCNc1nc(Cl)nc(N(NC(C)=O)C(C)C)n1,inactive
16,Cc1ccc(CNc2nc(C)cs2)cc1,"inconclusive: 2.59 µM [activator, full curve]"
17,COc1ccc(-c2onc(C)c2C)cc1S(=O)(=O)NCCc1ccco1,"inconclusive: 25.9 µM [falling, single point]"
18,CCNS(=O)(=O)c1ccc(CCC(=O)Nc2ccc(C(=O)OC)cc2)cc1,"inconclusive: 29.1 µM [falling, single point]"
19,Cc1cc(C(=O)Cn2nc(C(=O)O)c3ccccc3c2=O)c(C)n1-c1ccc(OC(F)F)cc1,"inconclusive: 8.2 µM [falling, partial curve, poor fit]"
20,COc1ccc(CN(CCN)C2CC(C)N(C)CC2C)cc1 (stereo unspecified),inactive
21,CCn1c(O)c(N=NC(=O)CNC(=O)/C=C/c2ccccc2)c2ccccc21,"inconclusive: 29.1 µM [falling, single point]"
22,COc1ccccc1Cn1c(C2CC(=O)N(c3ccccc3OC)C2)nc2ccccc21 (stereo unspecified),active: 10.3 µM

row,Structure (SMILES),Potency
1,CC(=O)Nc1ccc(N/C=C/C(=O)c2ccccc2)cc1,"inconclusive: 13 µM [activator, partial curve]"
2,COc1ccc(S(=O)(=O)NCc2ccncc2)cc1NC(=O)c1ccccc1,active: 6.51 µM
3,O=C(NC(=S)Nc1cccc2ncccc12)c1ccco1,inactive
4,CCC1(c2ccc(Cl)cc2)NC(=S)N(c2ccc(C)c(C)c2)N1 (stereo unspecified),inactive
5,O=C(C1=C[C@@H](c2csc3ccccc23)C[C@@H](OCc2ccc(CO)cc2)O1)N1CCN(Cc2ccc3c(c2)OCO3)CC1,"inconclusive: 32.6 µM [falling, single point]"
6,Cc1cc(S(=O)(=O)N2CCN(c3ccccn3)CC2)ccc1F,"inconclusive: 8.2 µM [falling, partial curve, poor fit]"
7,COc1ccccc1NC(=O)c1ccc(NC(=O)CN2CCN(C(=O)c3ccco3)CC2)cc1,"inconclusive: 8.2 µM [falling, partial curve, poor fit]"
8,O=C(c1ccc2c(=O)n(Cc3ccc(Cl)cc3)c(=S)[nH]c2c1)N1CCCC1,"inconclusive: 6.51 µM [activator, partial curve, poor fit]"
9,CCc1ccc2occ(CC(=O)Nc3c(C(=O)c4ccccc4)oc4ccccc34)c2c1,inactive
10,O=C(N/N=C/c1ccccn1)c1cc(-c2cccc3ccccc23)n[nH]1,"inconclusive: 25.9 µM [activator, partial curve, poor fit]"
11,CCOC(=O)c1c(-c2ccccc2)oc2ccc(NS(=O)(=O)c3ccc(C)cc3)cc12,"inconclusive: 29.1 µM [falling, single point]"
12,CCN1C(=O)c2ccccc2Sc2ccc(NC(=O)Nc3cc(C)cc(C)c3)cc21,inactive
13,CCN(CC)S(=O)(=O)c1ccc(N2CCOCC2)c(NC(=O)C2CC2)c1,inactive
14,COc1cccc(-c2c(-c3cc(OC)cc(OC)c3)n(C)c3ccc(-c4cnc(OC)nc4)cc23)c1,"inconclusive: 25.9 µM [falling, partial curve, poor fit]"
15,Clc1ccc(C(c2nnnn2CCc2ccccc2)N2CCSCC2)cc1 (stereo unspecified),"inconclusive: 29.1 µM [falling, single point]"
16,COc1cccc(C2C(C(N)=O)=C(C)Nc3nc(-c4cccc(Cl)c4)nn32)c1 (stereo unspecified),"inconclusive: 14.6 µM [falling, partial curve, poor fit]"
17,CCc1cc(=O)oc2cc(C)cc(OCC(=O)NCCc3c[nH]c4ccccc34)c12,"inconclusive: 23.1 µM [falling, single point]"
18,Clc1ccc2[nH]c3c(N4CCC5(CC4)OCCO5)ncnc3c2c1,active: 20.6 µM
19,CCC(C)(C)C1CCC2(CC1)NC(=O)N(CC(=O)N1CCN(S(=O)(=O)c3cc(C)ccc3C)CC1)C2=O (stereo unspecified),"inconclusive: 23.1 µM [falling, single point]"
20,Cc1ccc(S(=O)(=O)N(CC(=O)N2CCc3ccccc3C2)c2ccc(Cl)c(Cl)c2)cc1,"inconclusive: 20.6 µM [falling, single point]"
21,Cc1ccc(C)c(NS(=O)(=O)c2ccc(OCC(=O)NCC3CCCO3)cc2)c1 (stereo unspecified),"inconclusive: 11.6 µM [falling, partial curve, poor fit]"
22,CCN(C(=O)CSc1ncnc2c1cnn2-c1ccccc1)C1CCS(=O)(=O)C1 (stereo unspecified),"inconclusive: 10.3 µM [falling, partial curve]"
